Values from PubChem BioAssay AID1259405 (NCATS, 2018)
The deposit covers about 50,000 reagents; below is a part drawn at random. About 4,000 of all reagents (8%) were called active. 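Mouse siRNA library applied to hamster cells; one well for each siRNA.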 Reagents against one gene are numbered here. No sequences are given here.

- Test: 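Silenced genes that increase secreted GFP made by CHO cells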 (primary screen)
- System: Chinese hamster CHO-K1 ovary cells with stable secreted eGFP expression
- Knock-down reagent: single siRNA against mouse genes, 0.8 pmol siRNA per well (2 µl of 400 nM stock)
- Time to read-out: 3 days
- Measured: 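Percent of the per-plate non-targeting control median for intracellular GFP per well by laser scanning cytometry and for cell viability by ATP luminescence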
- Direction: GFP, % of control: higher = more GFP per well, higher productivity; viability (ATP), % of control: higher = more viable cells (more ATP)
- Hit rule: 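a knock-down is called active if GFP reaches 120% or more of non-targeting control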

Target gene | reagent | GFP, % of control | viability (ATP), % of control | Call
Snapc1 (small nuclear RNA activating complex, polypeptide 1) | 1 | 86.9 | 74.8 | inactive
Snapc1 (small nuclear RNA activating complex, polypeptide 1) | 2 | 60.7 | 65.6 | inactive
Snapc1 (small nuclear RNA activating complex, polypeptide 1) | 3 | 72.8 | 66.2 | inactive
4632415L05Rik (RIKEN cDNA 4632415L05 gene) | 1 | 46 | 49.9 | inactive
4632415L05Rik (RIKEN cDNA 4632415L05 gene) | 2 | 78.9 | 95 | inactive
4632415L05Rik (RIKEN cDNA 4632415L05 gene) | 3 | 76.8 | 101 | inactive
Pex5l (peroxisomal biogenesis factor 5-like) | 1 | 73.1 | 62.7 | inactive
Pex5l (peroxisomal biogenesis factor 5-like) | 2 | 75.9 | 67.3 | inactive
Pex5l (peroxisomal biogenesis factor 5-like) | 3 | 41.1 | 65.3 | inactive
Or10al2 (olfactory receptor family 10 subfamily AL member 2) | 1 | 53.3 | 55.2 | inactive
Or10al2 (olfactory receptor family 10 subfamily AL member 2) | 2 | 68.6 | 73.2 | inactive
Or10al2 (olfactory receptor family 10 subfamily AL member 2) | 3 | 67.5 | 29.8 | inactive
Nvl (nuclear VCP-like) | 1 | 92.8 | 99.2 | inactive
Nvl (nuclear VCP-like) | 2 | 165 | 110 | active
Uts2 (urotensin 2) | 1 | 44 | 56.1 | inactive
Uts2 (urotensin 2) | 2 | 82 | 88 | inactive
Uts2 (urotensin 2) | 3 | 84.8 | 64.6 | inactive
Fam149a (family with sequence similarity 149, member A) | 1 | 59.9 | 70.4 | inactive
Fam149a (family with sequence similarity 149, member A) | 2 | 77.9 | 83.3 | inactive
Fam149a (family with sequence similarity 149, member A) | 3 | 68.1 | 90.3 | inactive
Zfp239 (zinc finger protein 239) | 1 | 66.7 | 96.5 | inactive
Zfp239 (zinc finger protein 239) | 2 | 80.8 | 98.5 | inactive
Zfp239 (zinc finger protein 239) | 3 | 83.6 | 98.9 | inactive
Cadps (Ca2+-dependent secretion activator) | 1 | 87.9 | 92.5 | inactive
Cadps (Ca2+-dependent secretion activator) | 2 | 78.2 | 84.1 | inactive
Six4 (sine oculis-related homeobox 4) | 1 | 80.5 | 99.5 | inactive
Six4 (sine oculis-related homeobox 4) | 2 | 74.3 | 81.5 | inactive
Six4 (sine oculis-related homeobox 4) | 3 | 67.9 | 108 | inactive
Dnaaf11 (dynein axonemal assembly factor 11) | 1 | 79.4 | 89.9 | inactive
Dnaaf11 (dynein axonemal assembly factor 11) | 2 | 152 | 62 | active
Dnaaf11 (dynein axonemal assembly factor 11) | 3 | 63.1 | 62.1 | inactive
Galt (galactose-1-phosphate uridyl transferase) | 1 | 156 | 78 | active
Galt (galactose-1-phosphate uridyl transferase) | 2 | 102 | 69.1 | inactive
Galt (galactose-1-phosphate uridyl transferase) | 3 | 96.8 | 131 | inactive
Ell2 (elongation factor for RNA polymerase II 2) | 1 | 72.5 | 68 | inactive
Ell2 (elongation factor for RNA polymerase II 2) | 2 | 110 | 123 | inactive
Ggt6 (gamma-glutamyltransferase 6) | 1 | 87.6 | 116 | inactive
Ggt6 (gamma-glutamyltransferase 6) | 2 | 44.3 | 52.3 | inactive
Ggt6 (gamma-glutamyltransferase 6) | 3 | 52.2 | 87.7 | inactive
Plod2 (procollagen lysine, 2-oxoglutarate 5-dioxygenase 2) | 1 | 20.2 | 17.9 | inactive
Plod2 (procollagen lysine, 2-oxoglutarate 5-dioxygenase 2) | 2 | 75.3 | 62.9 | inactive
Plod2 (procollagen lysine, 2-oxoglutarate 5-dioxygenase 2) | 3 | 87.2 | 101 | inactive
Pds5b (PDS5 cohesin associated factor B) | 1 | 62.6 | 54.1 | inactive
Pds5b (PDS5 cohesin associated factor B) | 2 | 65.7 | 75.9 | inactive
Pds5b (PDS5 cohesin associated factor B) | 3 | 23.6 | 13.9 | inactive
Nob1 (NIN1/RPN12 binding protein 1 homolog) | 1 | 155 | 71.1 | active
Nob1 (NIN1/RPN12 binding protein 1 homolog) | 2 | 58.6 | 60.9 | inactive
Nob1 (NIN1/RPN12 binding protein 1 homolog) | 3 | 94.2 | 51.5 | inactive
Atp1b4 (ATPase Na+/K+ transporting, beta 4 polypeptide) | 1 | 142 | 103 | active
Atp1b4 (ATPase Na+/K+ transporting, beta 4 polypeptide) | 2 | 34.6 | 29.6 | inactive
Atp1b4 (ATPase Na+/K+ transporting, beta 4 polypeptide) | 3 | 86.1 | 74 | inactive
Ptpn22 | 1 | 50.9 | 47.1 | inactive
Ptpn22 | 2 | 67 | 65.8 | inactive
Ptpn22 | 3 | 112 | 74.9 | inactive
Crcp (calcitonin gene-related peptide-receptor component protein) | 1 | 195 | 92.1 | active
Crcp (calcitonin gene-related peptide-receptor component protein) | 2 | 115 | 88.6 | inactive
Crcp (calcitonin gene-related peptide-receptor component protein) | 3 | 72.7 | 69.7 | inactive
Bag1 (BCL2-associated athanogene 1) | 1 | 33 | 26.3 | inactive
Bag1 (BCL2-associated athanogene 1) | 2 | 129 | 87.5 | active
Bag1 (BCL2-associated athanogene 1) | 3 | 56.5 | 64.4 | inactive
Plekhn1 (pleckstrin homology domain containing N1) | 1 | 159 | 59.9 | active
Plekhn1 (pleckstrin homology domain containing N1) | 2 | 51.6 | 63.4 | inactive
Plekhn1 (pleckstrin homology domain containing N1) | 3 | 170 | 169 | active
Plekhn1 (pleckstrin homology domain containing N1) | 4 | 56.6 | 96.1 | inactive
Plekhn1 (pleckstrin homology domain containing N1) | 5 | 83.2 | 87.9 | inactive
Plekhn1 (pleckstrin homology domain containing N1) | 6 | 95.1 | 70.4 | inactive
Abi1 (abl interactor 1) | 1 | 69.9 | 67.9 | inactive
Abi1 (abl interactor 1) | 2 | 72.5 | 92.3 | inactive
Abi1 (abl interactor 1) | 3 | 102 | 85.4 | inactive
Sfrp4 (secreted frizzled-related protein 4) | 1 | 111 | 88.5 | inactive
Sfrp4 (secreted frizzled-related protein 4) | 2 | 74.2 | 53.4 | inactive
Sfrp4 (secreted frizzled-related protein 4) | 3 | 51.8 | 53 | inactive
Ldlrad4 (low density lipoprotein receptor class A domain containing 4) | 1 | 85.3 | 91.8 | inactive
Ldlrad4 (low density lipoprotein receptor class A domain containing 4) | 2 | 80.9 | 62 | inactive
Ldlrad4 (low density lipoprotein receptor class A domain containing 4) | 3 | 68 | 34.3 | inactive
Ube2c (ubiquitin-conjugating enzyme E2C) | 1 | 14.7 | 35.4 | inactive
Ube2c (ubiquitin-conjugating enzyme E2C) | 2 | 83.9 | 74.7 | inactive
Ube2c (ubiquitin-conjugating enzyme E2C) | 3 | 84.4 | 132 | inactive
Cpt1a (carnitine palmitoyltransferase 1a, liver) | 1 | 111 | 71.9 | inactive
Cpt1a (carnitine palmitoyltransferase 1a, liver) | 2 | 65.8 | 92.5 | inactive
Cpt1a (carnitine palmitoyltransferase 1a, liver) | 3 | 86.8 | 62.3 | inactive
Or5k17 (olfactory receptor family 5 subfamily K member 17) | 1 | 46.4 | 58.4 | inactive
Or5k17 (olfactory receptor family 5 subfamily K member 17) | 2 | 74.2 | 54 | inactive
Or5k17 (olfactory receptor family 5 subfamily K member 17) | 3 | 73.6 | 78.9 | inactive

In a second layout: 7 of the entries above
Sfrp4 (secreted frizzled-related protein 4) #1
- GFP, % of control: 111
- viability (ATP), % of control: 88.5
- Call: inactive

Sfrp4 (secreted frizzled-related protein 4) #2
- GFP, % of control: 74.2
- viability (ATP), % of control: 53.4
- Call: inactive

Sfrp4 (secreted frizzled-related protein 4) #3
- GFP, % of control: 51.8
- viability (ATP), % of control: 53
- Call: inactive

Ldlrad4 (low density lipoprotein receptor class A domain containing 4) #1
- GFP, % of control: 85.3
- viability (ATP), % of control: 91.8
- Call: inactive

Ldlrad4 (low density lipoprotein receptor class A domain containing 4) #2
- GFP, % of control: 80.9
- viability (ATP), % of control: 62
- Call: inactive

Ldlrad4 (low density lipoprotein receptor class A domain containing 4) #3
- GFP, % of control: 68
- viability (ATP), % of control: 34.3
- Call: inactive

Ube2c (ubiquitin-conjugating enzyme E2C) #1
- GFP, % of control: 14.7
- viability (ATP), % of control: 35.4
- Call: inactive
